Numbering of substitutions follows the chain as printed. Names and notes keep the numbering of the source. No constants are given. Whether binding was seen depends on the method and setting. Some entries that bind do so weakly or less than the wild type. Where a sequence is shown, tags or fusion partners need not be part of it. Each block holds one binder with its values, some of them ahead of it.
Columns and labels:
[1] = molecular target: Saccharomyces cerevisiae var. boulardii Ald6p variant p.M177V (Saccharomyces cerevisiae var. boulardii (NCYC 3264)) (UniProt P54115); test: cross-linking; BS3 (50-800 uM) with 15 uM protein in 100 mM sodium phosphate pH 7.4, 30 C, 35 min; products on SDS/PAGE (10% gel); both purified
[2] = molecular target: Saccharomyces cerevisiae var. boulardii Ald6p variant p.M177V (Saccharomyces cerevisiae var. boulardii (NCYC 3264)) (UniProt P54115); test: cross-linking; 1-3% (v/v) glutaraldehyde; results not shown; both purified
[3] = molecular target: Saccharomyces cerevisiae var. boulardii Ald6p variant p.M177V (Saccharomyces cerevisiae var. boulardii (NCYC 3264)) (UniProt P54115); test: SDS/PAGE of the untreated purified protein (SDS- and heat-resistant oligomers); purified protein without cross-linker on SDS/PAGE (10% gel); band not reduced by additional DTT (2 mM); both purified
[4] = molecular target: Saccharomyces cerevisiae var. boulardii cytosolic aldehyde dehydrogenase Ald6p (wild-type) (Saccharomyces cerevisiae var. boulardii (NCYC 3264)) (UniProt P54115); test: cross-linking; 1-3% (v/v) glutaraldehyde; results not shown; both purified

binding [1]: binds
binding [2]: binds
binding [3]: binds
B1: Saccharomyces cerevisiae var. boulardii Ald6p variant p.M177V (enzyme, UniProt P54115 1-500)
chain: MTKLHFDTAEPVKITLPNGLTYEQPTGLFINNKFMKAQDGKTYPVEDPSTENTVCEVSSATTEDVEYAIECADRAFHDTEWATQDPRERGRLLSKLADELESQIDLVSSIEALDNGKTLALARGDVTIAINCLRDAAAYADKVNGRTINTGDGYMNFTTLEPVGVCGQIIPWNFPIVMLAWKIAPALAMGNVCILKPAAVTPLNALYFASLCKKVGIPAGVVNIVPGPGRTVGAALTNDPRIRKLAFTGSTEVGKSVAVDSSESNLKKITLELGGKSAHLVFDDANIKKTLPNLVNGIFKNAGQICSSGSRIYVQEGIYDELLAAFKAYLETEIKVGNPFDKANFQGAITNRQQFDTIMNYIDIGKKEGAKILTGGEKVGDKGYFIRPTVFYDVNEDMRIVKEEIFGPVVTVAKFKTLEEGVEMANSSEFGLGSGIETESLSTGLKVAKMLKAGTVWINTYNDFDSRVPFGGVKQSGYGREMGEEVYHAYTEVKAVRIKL

binding [4]: binds
B2: Saccharomyces cerevisiae var. boulardii cytosolic aldehyde dehydrogenase Ald6p (wild-type) (enzyme, UniProt P54115 1-500, looked up)
chain: B1 chain with V177M
notes: Ald6p, cytosolic aldehyde dehydrogenase of S. cerevisiae var. boulardii NCYC 3264; differs from the S. cerevisiae S288c protein by valine for isoleucine at position 163; printed mass 54.4 kDa; Removal of the tag is not mentioned; also called cytosolic Ald6p; wild-type Ald6p; source: E. coli Rosetta (DE3), purified (cobalt agarose, dialysis)
